Results as given in PubChem BioAssay AID652054 (National Center for Advancing Translational Sciences (NCATS), 2013).
The whole screen tested about 360,000 compounds, of which about 9,100 (2.5%) were called active. This list was built around the results that the source calls inconclusive (neither active nor inactive); the mix of calls is not that of the screen. Cut-off read from the data, not from the text of the source: active = max response below about -50%; inconclusive = no clear call, values can overlap the other calls; inactive = above that.

Chains of the proteins cited; added tags and fusions are not shown.
UniProt P35462, whole entry, looked up: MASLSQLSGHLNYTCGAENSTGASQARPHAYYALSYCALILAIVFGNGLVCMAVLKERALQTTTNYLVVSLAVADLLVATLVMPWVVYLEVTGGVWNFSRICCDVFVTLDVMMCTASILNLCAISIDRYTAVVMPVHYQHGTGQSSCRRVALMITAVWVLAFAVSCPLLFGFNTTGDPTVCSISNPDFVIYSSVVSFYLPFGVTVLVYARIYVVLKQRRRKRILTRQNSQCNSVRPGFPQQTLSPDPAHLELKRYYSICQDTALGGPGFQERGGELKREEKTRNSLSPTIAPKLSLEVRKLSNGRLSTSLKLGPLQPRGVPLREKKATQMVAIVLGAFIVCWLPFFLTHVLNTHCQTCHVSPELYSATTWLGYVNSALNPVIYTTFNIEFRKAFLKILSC

The molecules below were run against D(3) dopamine receptor (Homo sapiens) (UniProt P35462) (assay: qHTS of D3 Dopamine Receptor Antagonist: qHTS). Conditions: D3R cells, DiscoveRx beta-arrestin luminescence, antagonist mode; hits give low values.
How it was run: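 Cells expressing the human receptor were seeded at 1500 cells/well, incubated overnight at 37 degrees C in 5% CO2, then exposed to library compounds with dopamine controls for 90 minutes at 37 degrees C before luminescent detection.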
% is set by controls: 0 for no effect and ±100 for the full control effect.

Question: For CCn1c(-c2cc(OC)ccc2OC)csc1=Nc1c(C)n(C)n(-c2ccccc2)c1=O, which max response, negative = inhibition is on record?
Answer: inconclusive: -45%

Question: How did the max response, negative = inhibition turn out when O=C(O)c1cc([N+](=O)[O-])cc2c1nnn2O was run?
Answer: active: -67.8%

Question: Which max response, negative = inhibition does the source give for CCCS(=O)(=O)N1CCC(C(=O)NCC2CCCO2)CC1 (centres undefined) here?
Answer: inconclusive: -33%

Question: With O=C(CSc1ccccc1)Nc1ccc2sccc2c1 as the molecule, how does the max response, negative = inhibition read?
Answer: inactive: 1.97%

Question: How did the max response, negative = inhibition turn out when O=c1cc(NCc2ccco2)c2ccccc2o1 was run?
Answer: inconclusive: -48%

Question: How did the max response, negative = inhibition turn out when Cc1ccccc1NC(NC(=O)OCCn1c([N+](=O)[O-])cnc1C)C(Cl)(Cl)Cl (centres undefined) was run?
Answer: active: -63%

Question: Which max response, negative = inhibition does the source give for CCOc1ccc(OCC)c2sc(C)nc12 here?
Answer: inconclusive: -30.9%

Question: Which max response, negative = inhibition does the source give for Cc1cc(=O)[nH]c(SCC(=O)/C=C2\N(C)c3ccccc3C2(C)C)n1 here?
Answer: inactive: 18.7%

Question: How did the max response, negative = inhibition turn out when CCCNC(=O)c1onc(CSc2ccc(F)c(F)c2)c1C(=O)NCCC was run?
Answer: inconclusive: -40%

Question: With O=C(O)CCCCCNC(=O)CCn1nnc2ccccc2c1=O as the molecule, how does the max response, negative = inhibition read?
Answer: active: -51.6%

Question: Which max response, negative = inhibition does the source give for O=C(Nc1nc(-c2ccc(F)c(F)c2)cs1)c1cnccn1 here?
Answer: inactive: 1.07%

Question: Which max response, negative = inhibition does the source give for COc1ccc(C[C@@H]2CN3C(=NC[C@@H]3C)N2C[C@H](C)NC(=O)CCC2CCCCC2)cc1 here?
Answer: inconclusive: -41.8%

Question: For Cn1nnnc1SCCNCc1ccc(Cl)cc1, which max response, negative = inhibition is on record?
Answer: inconclusive: -31.3%

Question: How did the max response, negative = inhibition turn out when Cn1c(/C=C/c2ccccc2)nc2ccccc21 was run?
Answer: inconclusive: -30.9%

Question: For Cc1cc(C)n2c(NC3CCCCC3)c(-c3ccccn3)nc2n1, which max response, negative = inhibition is on record?
Answer: inconclusive: -39.2%

Question: Which max response, negative = inhibition does the source give for CCOC(=O)/C(=N\Nc1ccccc1Cl)N1CCN(Cc2ccccc2)CC1 here?
Answer: inactive: 17.2%

Question: Cc1ccc(-c2csc(NC(=O)c3ccc(C)o3)n2)cc1 was tested. Which max response, negative = inhibition did it give?
Answer: inconclusive: -48.5%

Question: How did the max response, negative = inhibition turn out when COc1ccc(C(C)=O)cc1Cn1nc(C)c([N+](=O)[O-])c1C was run?
Answer: inconclusive: -40.1%

Question: O=C(NCc1ccc(F)c(F)c1)C1Cc2c(-c3ccc4c(c3)OCO4)ccnc2O1 (centres undefined) was tested. Which max response, negative = inhibition did it give?
Answer: inconclusive: -49.3%

Question: COc1ccc(NC(=O)C2Cc3c(-c4cccc(F)c4)ccnc3O2)cc1OC (centres undefined) was tested. Which max response, negative = inhibition did it give?
Answer: inactive: 32.6%

Question: How did the max response, negative = inhibition turn out when O=C(CCCN1Cc2ccccc2C1)c1ccc(F)cc1 was run?
Answer: active: -151%

Question: COc1ccccc1N1CCN(C(c2ccc(N(C)C)cc2)c2nnnn2CCc2ccccc2)CC1 (centres undefined) was tested. Which max response, negative = inhibition did it give?
Answer: active: -51.2%

Question: CN(C)c1ccc(C=c2c3cc([N+](=O)[O-])ccc3n3c2cc(-c2ccccc2)[n+]3C)cc1 was tested. Which max response, negative = inhibition did it give?
Answer: inconclusive: -41.2%

Question: Which max response, negative = inhibition does the source give for COc1ccccc1N1CCN(CCC(=O)Nc2cccc(Cl)c2)CC1 here?
Answer: active: -124%

Question: Which max response, negative = inhibition does the source give for O=C1CC(SC(=Nc2ccccc2)Nc2ccccc2)C(=O)N1c1ccc(Cl)c(Cl)c1 (centres undefined) here?
Answer: inconclusive: -39.5%

Question: With S=C1SC2(CCCCCC2)NC2=C1CCCCC2 as the molecule, how does the max response, negative = inhibition read?
Answer: inactive: 32.9%

Question: S=C(NCCc1ccc(Cl)cc1)NC1CCCCC1 was tested. Which max response, negative = inhibition did it give?
Answer: inconclusive: -30.3%

Question: With O=C(Nc1c(-c2ccc3c(c2)OCO3)[nH][nH]c1=O)c1ccccc1 as the molecule, how does the max response, negative = inhibition read?
Answer: active: -91.9%

Question: For CCOc1ccc(Nc2nc(Cc3nnc(SCC(=O)NC4CCCCC4)n3C)cs2)cc1, which max response, negative = inhibition is on record?
Answer: inactive: 6.39%

Question: C=CCOC(=O)C1=C(C)Nc2nnnn2C1c1cc(OC)ccc1OC (centres undefined) was tested. Which max response, negative = inhibition did it give?
Answer: inconclusive: -41.9%

Question: Which max response, negative = inhibition does the source give for O=C(/C=C/c1ccc(Br)cc1)c1ccco1 here?
Answer: inactive: -29%

Question: Clc1cccc(/C=N/Nc2nc(Cl)nc3ccccc23)c1 was tested. Which max response, negative = inhibition did it give?
Answer: active: -60.3%

Question: For O=C(Nc1cc(C(F)(F)F)ccc1Cl)C(NCc1ccccc1)c1ccccc1 (centres undefined), which max response, negative = inhibition is on record?
Answer: inactive: 0.905%

Question: Cc1oc(-c2cc(F)ccc2F)nc1CN1CCN(c2ncnc3ccccc23)CC1 was tested. Which max response, negative = inhibition did it give?
Answer: inconclusive: -34.7%

Question: Which max response, negative = inhibition does the source give for CCCn1c(=O)c(C(=O)NNS(=O)(=O)c2ccc(NC(=O)OC)cc2)c(O)c2ccccc21 here?
Answer: inconclusive: -32.7%

Question: Which max response, negative = inhibition does the source give for O=C(CSc1nc(Nc2ccccc2)nc(N2CCOCC2)n1)N1CCCC1 here?
Answer: inconclusive: -36.3%

Question: How did the max response, negative = inhibition turn out when O=C(CSc1ccccc1F)NCCCN1CCCC1=O was run?
Answer: inactive: 8.49%

Question: O=C(Nc1ccccc1Cl)c1cccs1 was tested. Which max response, negative = inhibition did it give?
Answer: inactive: 0%

Question: For CCOC(=O)C1CCN(C/C=C/c2ccccc2OC)CC1, which max response, negative = inhibition is on record?
Answer: active: -67.8%

Question: How did the max response, negative = inhibition turn out when CC(C)CCCN1CCN=C1N(C)C was run?
Answer: inactive: 3.97%

Question: How did the max response, negative = inhibition turn out when COc1cc(S(=O)(=O)N2CCN(Cc3ccccc3)CC2)ccc1Br was run?
Answer: inconclusive: -41.6%

Question: Which max response, negative = inhibition does the source give for CCc1ccccc1Nc1nc(N)nc(CSCC(=O)Nc2ccc(C)c(C)c2)n1 here?
Answer: inactive: 5.3%

Question: COC(=O)C1(S(=O)(=O)c2cc(Br)cc3c2N(C(C)=O)CC3)CC1 was tested. Which max response, negative = inhibition did it give?
Answer: inconclusive: -30.5%

Question: For CC(=O)N1Cc2cc(C(=O)NCC(F)(F)F)nc(-c3cccc(-c4cccnc4)c3)c2[C@H]1CCO, which max response, negative = inhibition is on record?
Answer: inconclusive: -46.5%

Question: For C=CCN(CC=C)CCOc1ccc2ccccc2c1, which max response, negative = inhibition is on record?
Answer: inconclusive: -32.3%

Question: With Cc1cc(C)c(C#N)c(SCc2[nH]nc3c2C(c2ccc(F)cc2)C(C#N)=C(N)O3)n1 (centres undefined) as the molecule, how does the max response, negative = inhibition read?
Answer: inconclusive: -33%

Question: Which max response, negative = inhibition does the source give for C=CCN1C(=O)/C(=C/N(C)C)S/C1=N\S(=O)(=O)c1cccs1 here?
Answer: inactive: 7.52%

Question: How did the max response, negative = inhibition turn out when COCCn1c(=O)[nH]c2cc(C(=O)NCCCN3CCN(c4ccc(F)cc4)CC3)ccc2c1=O was run?
Answer: inconclusive: -49.6%

Question: Which max response, negative = inhibition does the source give for Cc1oc(-c2ccccc2Cl)nc1CN1CCCN(C(=O)c2ccco2)CC1 here?
Answer: inconclusive: -30.8%

Question: How did the max response, negative = inhibition turn out when CCc1nc2c(OCc3ccc(C#N)cc3)cccn2c1N(C)C(=O)c1ccc(C)cc1 was run?
Answer: inconclusive: -44.5%

Question: For COC(=O)CN1C(=O)COc2ccc(Cl)cc21, which max response, negative = inhibition is on record?
Answer: inconclusive: -33.3%

Question: Which max response, negative = inhibition does the source give for O=C(NC(=S)NCCO)c1sc2ccccc2c1Cl here?
Answer: inconclusive: -30.2%

Question: Which max response, negative = inhibition does the source give for Cc1ccccc1CN1CCCC(C(=O)Nc2ccc(-c3ccn[nH]3)cc2)C1 (centres undefined) here?
Answer: inconclusive: -42.4%

Question: COc1cc2c(cc1OC)C(COc1cccc(C(F)(F)F)c1)NCC2 (centres undefined) was tested. Which max response, negative = inhibition did it give?
Answer: inconclusive: -36.5%

Question: Which max response, negative = inhibition does the source give for CCN1CCc2c(sc(NC(=O)c3ccc(S(=O)(=O)N4CCOCC4)cc3)c2C(N)=O)C1 here?
Answer: inconclusive: -30.8%

Question: With O=C(CCN1CCN(c2ccc(Cl)cc2)CC1)Nc1nccs1 as the molecule, how does the max response, negative = inhibition read?
Answer: active: -65.8%

Question: Which max response, negative = inhibition does the source give for Cc1cc2ncn(C(=O)c3c(-c4ccccc4Cl)noc3C)c2cc1C here?
Answer: inconclusive: -46.3%

Question: For c1ccc(-n2nnnc2NCCc2c[nH]c3ccccc23)cc1, which max response, negative = inhibition is on record?
Answer: active: -52.1%

Question: With CCN(CC)CCNc1c2c(c(C#N)c3nc4ccccc4n13)CCCC2 as the molecule, how does the max response, negative = inhibition read?
Answer: inconclusive: -49.2%
